Data published in article PMC9710144.

The chains behind the UniProt entries cited, without tags or fusion partners.
UniProt O14802: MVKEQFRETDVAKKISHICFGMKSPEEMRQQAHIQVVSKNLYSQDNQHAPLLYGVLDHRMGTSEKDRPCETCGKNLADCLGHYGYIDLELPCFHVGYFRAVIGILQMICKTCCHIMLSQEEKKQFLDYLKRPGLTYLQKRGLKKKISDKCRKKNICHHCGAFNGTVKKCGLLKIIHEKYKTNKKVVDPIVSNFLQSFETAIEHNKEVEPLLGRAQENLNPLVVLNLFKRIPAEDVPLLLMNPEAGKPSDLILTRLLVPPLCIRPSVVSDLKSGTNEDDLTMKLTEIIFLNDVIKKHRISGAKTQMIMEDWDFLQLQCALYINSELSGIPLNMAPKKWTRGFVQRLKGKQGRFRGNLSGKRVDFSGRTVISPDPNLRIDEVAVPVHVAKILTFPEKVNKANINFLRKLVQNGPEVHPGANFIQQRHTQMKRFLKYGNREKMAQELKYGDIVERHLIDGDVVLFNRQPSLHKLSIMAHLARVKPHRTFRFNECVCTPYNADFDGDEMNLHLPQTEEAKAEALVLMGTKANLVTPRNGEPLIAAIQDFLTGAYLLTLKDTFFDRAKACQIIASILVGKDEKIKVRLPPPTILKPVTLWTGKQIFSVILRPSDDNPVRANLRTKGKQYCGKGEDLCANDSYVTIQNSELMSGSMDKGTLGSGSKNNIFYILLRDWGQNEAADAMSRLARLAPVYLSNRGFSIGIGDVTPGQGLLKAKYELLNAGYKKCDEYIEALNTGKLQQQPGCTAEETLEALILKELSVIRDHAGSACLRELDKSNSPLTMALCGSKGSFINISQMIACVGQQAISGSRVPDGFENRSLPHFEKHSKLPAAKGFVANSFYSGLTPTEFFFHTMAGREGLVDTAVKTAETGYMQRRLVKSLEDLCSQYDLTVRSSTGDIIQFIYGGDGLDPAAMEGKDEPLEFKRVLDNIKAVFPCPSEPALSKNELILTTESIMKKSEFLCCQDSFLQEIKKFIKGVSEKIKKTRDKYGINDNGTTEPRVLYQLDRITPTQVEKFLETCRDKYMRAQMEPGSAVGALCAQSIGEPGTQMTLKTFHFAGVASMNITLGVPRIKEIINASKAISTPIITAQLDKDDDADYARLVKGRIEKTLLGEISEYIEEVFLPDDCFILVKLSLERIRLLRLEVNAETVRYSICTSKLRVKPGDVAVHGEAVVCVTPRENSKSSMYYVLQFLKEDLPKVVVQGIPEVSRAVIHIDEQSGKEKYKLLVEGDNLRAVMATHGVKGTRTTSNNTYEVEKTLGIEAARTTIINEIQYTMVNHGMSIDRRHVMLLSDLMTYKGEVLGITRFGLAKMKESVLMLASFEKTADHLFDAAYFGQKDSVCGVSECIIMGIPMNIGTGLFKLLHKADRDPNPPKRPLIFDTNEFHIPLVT
UniProt Q9UHW5: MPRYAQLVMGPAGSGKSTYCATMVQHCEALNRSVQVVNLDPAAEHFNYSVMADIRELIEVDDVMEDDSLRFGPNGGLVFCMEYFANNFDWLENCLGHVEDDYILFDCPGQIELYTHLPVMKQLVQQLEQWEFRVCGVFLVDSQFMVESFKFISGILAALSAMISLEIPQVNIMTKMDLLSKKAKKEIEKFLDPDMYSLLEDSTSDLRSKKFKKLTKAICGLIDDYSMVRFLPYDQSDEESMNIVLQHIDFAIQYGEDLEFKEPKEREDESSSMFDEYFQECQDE
UniProt P08238: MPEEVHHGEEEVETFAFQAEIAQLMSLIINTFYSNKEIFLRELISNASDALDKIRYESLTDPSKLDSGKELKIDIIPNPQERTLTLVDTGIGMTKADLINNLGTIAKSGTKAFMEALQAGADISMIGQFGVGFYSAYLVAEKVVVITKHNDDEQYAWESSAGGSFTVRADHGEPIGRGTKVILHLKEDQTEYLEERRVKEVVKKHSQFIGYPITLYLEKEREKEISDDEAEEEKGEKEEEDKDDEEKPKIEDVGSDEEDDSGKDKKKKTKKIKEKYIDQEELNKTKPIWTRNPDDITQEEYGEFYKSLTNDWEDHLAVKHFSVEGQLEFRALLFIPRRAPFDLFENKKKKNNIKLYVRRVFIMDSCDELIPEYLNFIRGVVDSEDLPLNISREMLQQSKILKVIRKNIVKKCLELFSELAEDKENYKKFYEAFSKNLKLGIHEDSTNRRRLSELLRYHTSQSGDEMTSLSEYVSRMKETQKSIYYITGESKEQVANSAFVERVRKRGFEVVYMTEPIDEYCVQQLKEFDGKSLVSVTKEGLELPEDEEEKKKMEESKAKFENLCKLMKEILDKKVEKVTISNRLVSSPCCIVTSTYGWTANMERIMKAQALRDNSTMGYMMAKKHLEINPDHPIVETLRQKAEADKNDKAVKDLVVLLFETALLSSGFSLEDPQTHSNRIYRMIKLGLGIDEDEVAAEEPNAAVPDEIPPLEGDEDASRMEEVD
UniProt P0DMV8: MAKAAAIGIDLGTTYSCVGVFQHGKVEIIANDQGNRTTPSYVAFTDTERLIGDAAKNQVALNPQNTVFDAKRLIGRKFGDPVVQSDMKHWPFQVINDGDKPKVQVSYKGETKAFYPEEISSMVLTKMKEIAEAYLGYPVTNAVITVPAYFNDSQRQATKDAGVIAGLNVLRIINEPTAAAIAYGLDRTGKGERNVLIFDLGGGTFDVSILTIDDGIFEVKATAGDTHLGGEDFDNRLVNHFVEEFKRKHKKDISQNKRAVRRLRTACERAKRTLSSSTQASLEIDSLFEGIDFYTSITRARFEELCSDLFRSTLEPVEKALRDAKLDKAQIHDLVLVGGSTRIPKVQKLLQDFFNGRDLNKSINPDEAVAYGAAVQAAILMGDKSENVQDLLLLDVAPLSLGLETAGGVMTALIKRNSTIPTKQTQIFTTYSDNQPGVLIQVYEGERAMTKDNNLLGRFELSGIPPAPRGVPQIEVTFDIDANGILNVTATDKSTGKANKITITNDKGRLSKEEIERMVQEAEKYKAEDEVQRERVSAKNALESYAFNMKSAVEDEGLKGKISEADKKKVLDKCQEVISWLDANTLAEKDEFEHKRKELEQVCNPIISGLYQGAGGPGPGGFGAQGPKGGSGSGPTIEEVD
UniProt P11142: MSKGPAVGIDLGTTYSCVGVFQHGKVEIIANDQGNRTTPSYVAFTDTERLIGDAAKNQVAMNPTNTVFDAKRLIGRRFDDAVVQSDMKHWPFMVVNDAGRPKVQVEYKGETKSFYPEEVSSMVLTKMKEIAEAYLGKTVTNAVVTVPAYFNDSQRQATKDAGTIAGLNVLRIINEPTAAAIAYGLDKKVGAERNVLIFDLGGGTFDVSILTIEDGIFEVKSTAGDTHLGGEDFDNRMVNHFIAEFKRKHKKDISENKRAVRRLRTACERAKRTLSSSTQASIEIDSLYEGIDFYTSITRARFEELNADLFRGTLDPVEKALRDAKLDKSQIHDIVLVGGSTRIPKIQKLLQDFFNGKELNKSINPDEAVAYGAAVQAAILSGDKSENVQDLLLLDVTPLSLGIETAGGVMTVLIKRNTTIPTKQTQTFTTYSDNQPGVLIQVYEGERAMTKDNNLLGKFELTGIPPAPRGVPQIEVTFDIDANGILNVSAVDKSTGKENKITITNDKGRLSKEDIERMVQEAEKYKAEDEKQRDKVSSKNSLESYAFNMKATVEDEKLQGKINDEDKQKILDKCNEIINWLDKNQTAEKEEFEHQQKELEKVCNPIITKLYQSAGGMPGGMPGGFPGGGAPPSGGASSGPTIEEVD
UniProt O15212: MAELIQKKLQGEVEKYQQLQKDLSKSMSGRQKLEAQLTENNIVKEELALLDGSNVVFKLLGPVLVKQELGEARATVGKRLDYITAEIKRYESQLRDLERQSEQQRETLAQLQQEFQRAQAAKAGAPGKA
UniProt O15160: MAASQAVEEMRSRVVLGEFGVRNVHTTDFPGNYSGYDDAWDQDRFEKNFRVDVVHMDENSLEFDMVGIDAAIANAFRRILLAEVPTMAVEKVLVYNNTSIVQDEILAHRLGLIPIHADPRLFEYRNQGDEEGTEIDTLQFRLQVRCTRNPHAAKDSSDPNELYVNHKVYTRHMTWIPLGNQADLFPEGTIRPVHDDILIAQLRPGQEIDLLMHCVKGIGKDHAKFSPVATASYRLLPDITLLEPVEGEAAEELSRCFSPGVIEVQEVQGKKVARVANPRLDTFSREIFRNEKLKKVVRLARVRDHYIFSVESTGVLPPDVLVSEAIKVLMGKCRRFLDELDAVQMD
UniProt P0DPB6: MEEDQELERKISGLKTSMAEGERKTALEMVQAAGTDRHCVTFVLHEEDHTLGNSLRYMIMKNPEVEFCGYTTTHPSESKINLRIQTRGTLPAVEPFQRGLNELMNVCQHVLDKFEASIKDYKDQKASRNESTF
UniProt P05423: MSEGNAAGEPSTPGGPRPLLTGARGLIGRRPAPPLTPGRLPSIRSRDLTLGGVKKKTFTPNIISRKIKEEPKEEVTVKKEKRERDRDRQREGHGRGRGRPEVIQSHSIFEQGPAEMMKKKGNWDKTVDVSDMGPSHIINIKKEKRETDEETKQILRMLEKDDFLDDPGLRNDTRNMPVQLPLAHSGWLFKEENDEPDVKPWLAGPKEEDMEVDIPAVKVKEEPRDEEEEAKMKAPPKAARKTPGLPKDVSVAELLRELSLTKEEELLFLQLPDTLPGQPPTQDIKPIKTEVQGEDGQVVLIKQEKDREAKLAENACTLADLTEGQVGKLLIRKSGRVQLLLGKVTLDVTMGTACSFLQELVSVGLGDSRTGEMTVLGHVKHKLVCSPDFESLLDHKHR
UniProt Q9NVU0: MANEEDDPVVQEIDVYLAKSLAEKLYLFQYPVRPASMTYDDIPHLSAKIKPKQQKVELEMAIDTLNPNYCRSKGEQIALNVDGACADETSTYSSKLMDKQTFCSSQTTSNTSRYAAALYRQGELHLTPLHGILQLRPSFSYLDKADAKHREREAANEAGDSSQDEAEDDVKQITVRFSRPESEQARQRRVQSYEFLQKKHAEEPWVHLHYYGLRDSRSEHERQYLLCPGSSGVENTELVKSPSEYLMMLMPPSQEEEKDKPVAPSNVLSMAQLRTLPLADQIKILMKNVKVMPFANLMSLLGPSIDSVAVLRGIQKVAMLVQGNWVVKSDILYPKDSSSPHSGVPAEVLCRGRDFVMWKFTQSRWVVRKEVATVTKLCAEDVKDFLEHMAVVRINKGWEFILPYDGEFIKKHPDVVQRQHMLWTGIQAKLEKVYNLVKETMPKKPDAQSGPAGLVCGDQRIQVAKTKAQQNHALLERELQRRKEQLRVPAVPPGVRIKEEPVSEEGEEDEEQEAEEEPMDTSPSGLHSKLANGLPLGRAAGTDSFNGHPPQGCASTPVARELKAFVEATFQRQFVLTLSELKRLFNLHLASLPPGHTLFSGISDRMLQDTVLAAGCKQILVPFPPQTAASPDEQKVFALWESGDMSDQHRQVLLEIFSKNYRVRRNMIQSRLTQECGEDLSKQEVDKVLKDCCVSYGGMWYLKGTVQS
UniProt Q9Y2Y1: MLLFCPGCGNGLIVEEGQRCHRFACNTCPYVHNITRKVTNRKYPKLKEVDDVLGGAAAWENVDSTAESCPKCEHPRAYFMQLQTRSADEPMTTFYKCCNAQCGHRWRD
UniProt Q9Y265: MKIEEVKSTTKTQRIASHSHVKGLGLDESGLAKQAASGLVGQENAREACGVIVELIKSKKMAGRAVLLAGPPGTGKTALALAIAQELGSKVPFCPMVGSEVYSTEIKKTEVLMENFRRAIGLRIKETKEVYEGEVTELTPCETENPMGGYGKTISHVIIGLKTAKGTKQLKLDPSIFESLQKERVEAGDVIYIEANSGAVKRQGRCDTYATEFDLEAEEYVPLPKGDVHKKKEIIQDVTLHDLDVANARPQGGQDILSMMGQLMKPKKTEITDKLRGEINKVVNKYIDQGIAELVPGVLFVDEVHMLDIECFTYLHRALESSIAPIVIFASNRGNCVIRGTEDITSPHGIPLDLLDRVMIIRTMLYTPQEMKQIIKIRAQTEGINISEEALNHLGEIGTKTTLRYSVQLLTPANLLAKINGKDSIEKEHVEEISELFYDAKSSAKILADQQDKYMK

How the values were obtained:
[1] = target: FLAG-tagged POLR3B WT (human) (UniProt Q9NW08); test: affinity purification with mass spectrometry; FLAG-tagged POLR3B WT or R103H transiently transfected in HEK293, harvested at time points (5-24 h) after transfection, or treated with 12.5 µM riluzole or DMSO for 20 h; anti-FLAG (M2) magnetic beads with 1.5 mg cell extract, 3 h, 4 °C, lysis buffer 25 mM HEPES, 50 mM KCl, 0,05% NP-40; LC-MS/MS, LFQ, triplicate
[2] = target: T1, FLAG-tagged POLR3B R103H (human) (UniProt Q9NW08); test: as above
T1 sequence: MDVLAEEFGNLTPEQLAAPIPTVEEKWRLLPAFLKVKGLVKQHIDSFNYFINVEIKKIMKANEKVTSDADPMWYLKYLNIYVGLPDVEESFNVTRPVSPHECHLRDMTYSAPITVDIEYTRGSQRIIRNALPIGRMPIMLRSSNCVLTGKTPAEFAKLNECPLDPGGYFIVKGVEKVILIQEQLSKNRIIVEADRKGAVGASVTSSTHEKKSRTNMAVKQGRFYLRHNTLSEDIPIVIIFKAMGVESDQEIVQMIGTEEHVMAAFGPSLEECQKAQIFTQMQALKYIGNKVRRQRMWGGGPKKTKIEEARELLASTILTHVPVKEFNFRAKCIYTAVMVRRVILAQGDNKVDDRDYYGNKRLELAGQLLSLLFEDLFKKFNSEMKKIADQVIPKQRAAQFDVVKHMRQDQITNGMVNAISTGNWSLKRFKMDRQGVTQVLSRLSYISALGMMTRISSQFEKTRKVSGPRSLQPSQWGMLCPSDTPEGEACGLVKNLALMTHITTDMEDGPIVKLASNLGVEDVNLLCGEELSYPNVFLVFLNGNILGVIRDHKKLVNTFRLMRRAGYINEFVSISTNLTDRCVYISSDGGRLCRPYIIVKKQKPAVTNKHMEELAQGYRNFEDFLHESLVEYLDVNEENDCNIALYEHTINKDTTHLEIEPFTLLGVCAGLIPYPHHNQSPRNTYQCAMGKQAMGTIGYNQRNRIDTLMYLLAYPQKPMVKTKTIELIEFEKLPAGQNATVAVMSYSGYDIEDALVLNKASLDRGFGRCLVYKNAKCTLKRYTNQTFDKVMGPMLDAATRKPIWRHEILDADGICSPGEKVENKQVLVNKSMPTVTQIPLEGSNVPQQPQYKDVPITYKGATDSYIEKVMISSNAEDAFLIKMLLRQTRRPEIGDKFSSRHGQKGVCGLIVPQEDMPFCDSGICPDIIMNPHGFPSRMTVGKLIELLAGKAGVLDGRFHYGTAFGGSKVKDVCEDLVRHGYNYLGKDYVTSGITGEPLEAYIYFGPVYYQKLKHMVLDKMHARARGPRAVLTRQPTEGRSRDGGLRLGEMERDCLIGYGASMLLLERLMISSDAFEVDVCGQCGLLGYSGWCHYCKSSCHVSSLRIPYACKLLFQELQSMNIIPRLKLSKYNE

[3] = target: FLAG-tagged POLR3A WT (human) (UniProt O14802); test: affinity purification with mass spectrometry; FLAG-tagged POLR3A WT transiently transfected in HEK293, harvested at time points (0-12 h) after transfection; anti-FLAG (M2) magnetic beads with 1.5 mg cell extract, 3 h, 4 °C, lysis buffer 25 mM HEPES, 50 mM KCl, 0,05% NP-40; LC-MS/MS, LFQ against the FLAG control, triplicate

Q: How did the binding [1] turn out when GPN3 (from UniProt Q9UHW5 1-284) was run?
A: binds

Q: For HSP90AA1 (from UniProt P07900 1-732), which binding [2] is on record?
A: binds

Q: What about the binding [1] of the same substance?
A: binds

Q: What does the source list for HSP90AB1 (from UniProt P08238 1-724)?
A: binding [2]: binds; binding [1]: binds

Q: What does the source list for HSPA1A (from UniProt P0DMV8 1-641)?
A: binding [2]: binds; binding [1]: binds

Q: What does the source list for HSPA8 (from UniProt P11142 1-646)?
A: binding [2]: binds; binding [1]: binds

Q: For PFDN6 (from UniProt O15212 1-129), which binding [3] is on record?
A: binds

Q: POLR1C (from UniProt O15160 1-346) was tested. Which binding [2] did it give?
A: binds

Q: What about the binding [1] of the same substance?
A: binds

Q: What about the binding [3] of the same substance?
A: binds

Q: Which results are given for POLR1D (from UniProt P0DPB6 1-133)?
A: binding [2]: binds; binding [1]: binds

Q: For POLR3A (from UniProt O14802 1-1390), which binding [1] is on record?
A: binds

Q: How did the binding [3] turn out when POLR3B (from UniProt Q9NW08 1-1133) was run?
A: binds

Q: Which binding [1] does the source give for POLR3D (from UniProt P05423 1-398) here?
A: binds

Q: What about the binding [3] of the same substance?
A: binds

Q: POLR3E (from UniProt Q9NVU0 1-708) was tested. Which binding [2] did it give?
A: binds

Q: What about the binding [1] of the same substance?
A: binds

Q: What about the binding [3] of the same substance?
A: binds

Q: For POLR3K (from UniProt Q9Y2Y1 1-108), which binding [1] is on record?
A: binds

Q: RUVBL1 (from UniProt Q9Y265 1-456) was tested. Which binding [2] did it give?
A: binds

Q: What about the binding [1] of the same substance?
A: binds

These are yes or no findings as the source states them, for the method shown. Binding seen in cells or lysates may run through a third protein. Here binding means that the protein was enriched with, or labelled near, the bait; the list need not be complete. For some of these results: Where a sequence is shown, tags or fusion partners need not be part of it.
